Drawing on PMC10664664, this text covers binding for 4 molecules.

The chains behind the UniProt entries cited, without tags or fusion partners.
UniProt P06733: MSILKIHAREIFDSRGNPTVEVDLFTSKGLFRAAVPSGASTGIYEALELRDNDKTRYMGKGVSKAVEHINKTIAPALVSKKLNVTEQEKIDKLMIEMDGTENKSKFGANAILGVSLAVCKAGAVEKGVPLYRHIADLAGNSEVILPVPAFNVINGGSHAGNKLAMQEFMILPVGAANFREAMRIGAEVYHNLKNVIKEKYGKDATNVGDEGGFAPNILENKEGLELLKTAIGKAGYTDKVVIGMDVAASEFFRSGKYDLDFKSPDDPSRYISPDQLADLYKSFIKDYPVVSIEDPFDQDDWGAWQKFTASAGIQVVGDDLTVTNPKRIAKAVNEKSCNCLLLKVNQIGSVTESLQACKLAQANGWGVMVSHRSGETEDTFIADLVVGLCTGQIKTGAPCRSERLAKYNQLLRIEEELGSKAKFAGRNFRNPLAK
UniProt P11413: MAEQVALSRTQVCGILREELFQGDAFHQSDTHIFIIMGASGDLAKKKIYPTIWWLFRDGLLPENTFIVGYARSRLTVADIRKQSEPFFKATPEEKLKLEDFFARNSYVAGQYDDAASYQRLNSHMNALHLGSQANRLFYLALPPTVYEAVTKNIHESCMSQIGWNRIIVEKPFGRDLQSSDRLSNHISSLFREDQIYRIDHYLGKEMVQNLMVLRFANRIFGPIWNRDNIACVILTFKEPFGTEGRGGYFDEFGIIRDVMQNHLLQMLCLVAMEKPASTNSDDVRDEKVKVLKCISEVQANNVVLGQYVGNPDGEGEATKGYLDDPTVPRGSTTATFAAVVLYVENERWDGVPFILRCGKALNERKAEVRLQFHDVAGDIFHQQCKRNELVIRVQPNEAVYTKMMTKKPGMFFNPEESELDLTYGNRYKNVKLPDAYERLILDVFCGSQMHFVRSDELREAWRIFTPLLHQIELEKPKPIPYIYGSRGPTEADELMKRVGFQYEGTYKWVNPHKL

These are yes or no findings as the source states them, for the method shown. In cells and extracts the contact can be indirect. A yes stands for co-enrichment or nearness to the bait. Other partners may have been found.

In this assay the target is T1, LIPH (Lipase H), full-length human cDNA overexpressed (OE-LIPH) (human) (UniProt Q8WWY8).
T1 sequence: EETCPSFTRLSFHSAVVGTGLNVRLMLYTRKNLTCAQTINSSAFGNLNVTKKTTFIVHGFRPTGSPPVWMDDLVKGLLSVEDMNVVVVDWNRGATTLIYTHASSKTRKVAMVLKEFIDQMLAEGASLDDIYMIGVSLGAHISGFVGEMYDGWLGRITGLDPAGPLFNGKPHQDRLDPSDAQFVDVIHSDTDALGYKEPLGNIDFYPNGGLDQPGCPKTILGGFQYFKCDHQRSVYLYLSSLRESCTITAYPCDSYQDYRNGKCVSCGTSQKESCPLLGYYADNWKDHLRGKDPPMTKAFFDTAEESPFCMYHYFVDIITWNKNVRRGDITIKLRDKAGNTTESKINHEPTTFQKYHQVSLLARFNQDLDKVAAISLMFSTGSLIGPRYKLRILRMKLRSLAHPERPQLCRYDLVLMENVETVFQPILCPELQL
The assay can be described thus: affinity purification with mass spectrometry; products of co-IP with the FLAG antibody from MIA PaCa-2 cells transfected with NC-vector or OE-LIPH; gel fragments cut from SDS-PAGE, trypsin digest, LC-MS (Q-Exactive).

“ENO1 (from UniProt P06733 1-434) (enzyme)”: the binding entry is “binds”.
Under “G6PD (from UniProt P11413 1-515) (enzyme)” stands “binds”.

B1: UBE2O, an E2/E3 hybrid ubiquitin-protein ligase (enzyme, UniProt Q9C0C9 1-1292)
chain: MADPAAPTPAAPAPAQAPAPAPEAVPAPAAAPVPAPAPASDSASGPSSDSGPEAGSQRLLFSHDLVSGRYRGSVHFGLVRLIHGEDSDSEGEEEGRGSSGCSEAGGAGHEEGRASPLRRGYVRVQWYPEGVKQHVKETKLKLEDRSVVPRDVVRHMRSTDSQCGTVIDVNIDCAVKLIGTNCIIYPVNSKDLQHIWPFMYGDYIAYDCWLGKVYDLKNQIILKLSNGARCSMNTEDGAKLYDVCPHVSDSGLFFDDSYGFYPGQVLIGPAKIFSSVQWLSGVKPVLSTKSKFRVVVEEVQVVELKVTWITKSFCPGGTDSVSPPPSVITQENLGRVKRLGCFDHAQRQLGERCLYVFPAKVEPAKIAWECPEKNCAQGEGSMAKKVKRLLKKQVVRIMSCSPDTQCSRDHSMEDPDKKGESKTKSEAESASPEETPDGSASPVEMQDEGAEEPHEAGEQLPPFLLKEGRDDRLHSAEQDADDEAADDTDDTSSVTSSASSTTSSQSGSGTSRKKSIPLSIKNLKRKHKRKKNKITRDFKPGDRVAVEVVTTMTSADVMWQDGSVECNIRSNDLFPVHHLDNNEFCPGDFVVDKRVQSCPDPAVYGVVQSGDHIGRTCMVKWFKLRPSGDDVELIGEEEDVSVYDIADHPDFRFRTTDIVIRIGNTEDGAPHKEDEPSVGQVARVDVSSKVEVVWADNSKTIILPQHLYNIESEIEESDYDSVEGSTSGASSDEWEDDSDSWETDNGLVEDEHPKIEEPPIPPLEQPVAPEDKGVVISEEAATAAVQGAVAMAAPMAGLMEKAGKDGPPKSFRELKEAIKILESLKNMTVEQLLTGSPTSPTVEPEKPTREKKFLDDIKKLQENLKKTLDNVAIVEEEKMEAVPDVERKEDKPEGQSPVKAEWPSETPVLCQQCGGKPGVTFTSAKGEVFSVLEFAPSNHSFKKIEFQPPEAKKFFSTVRKEMALLATSLPEGIMVKTFEDRMDLFSALIKGPTRTPYEDGLYLFDIQLPNIYPAVPPHFCYLSQCSGRLNPNLYDNGKVCVSLLGTWIGKGTERWTSKSSLLQVLISIQGLILVNEPYYNEAGFDSDRGLQEGYENSRCYNEMALIRVVQSMTQLVRRPPEVFEQEIRQHFSTGGWRLVNRIESWLETHALLEKAQALPNGVPKASSSPEPPAVAELSDSGQQEPEDGGPAPGEASQGSDSEGGAQGLASASRDHTDQTSETAPDASVPPSVKPKKRRKSYRSFLPEKSGYPDIGFPLFPLSKGFIKSIRGVLTQFRAALLEAGMPECTEDK
Turning to B1, the binding result is given as “binds”.

B2: aldolase A (ALDOA) (enzyme, UniProt P04075 1-364)
chain: MPYQYPALTPEQKKELSDIAHRIVAPGKGILAADESTGSIAKRLQSIGTENTEENRRFYRQLLLTADDRVNPCIGGVILFHETLYQKADDGRPFPQVIKSKGGVVGIKVDKGVVPLAGTNGETTTQGLDGLSERCAQYKKDGADFAKWRCVLKIGEHTPSALAIMENANVLARYASICQQNGIVPIVEPEILPDGDHDLKRCQYVTEKVLAAVYKALSDHHIYLEGTLLKPNMVTPGHACTQKFSHEEIAMATVTALRRTVPPAVTGITFLSGGQSEEEASINLNAINKCPLLKPWALTFSYGRALQASALKAWGGKKENLKAAQEEYVKRALANSLACQGKYTPSGQAGAAASESLFVSNHAY
For the molecule B2, the binding entry was “binds”.
